In PMC4499137:
Results are given in words; binding and its absence hold for the method and conditions named. Binding calls can cover weak binding; strength is not graded here. Sequences can lack the tags named with a protein.

The chains behind the UniProt entries cited, without tags or fusion partners. Where a name states a change or a piece, a line headed by the entry shows the natural chain unless it says otherwise.
UniProt Q9BQ67: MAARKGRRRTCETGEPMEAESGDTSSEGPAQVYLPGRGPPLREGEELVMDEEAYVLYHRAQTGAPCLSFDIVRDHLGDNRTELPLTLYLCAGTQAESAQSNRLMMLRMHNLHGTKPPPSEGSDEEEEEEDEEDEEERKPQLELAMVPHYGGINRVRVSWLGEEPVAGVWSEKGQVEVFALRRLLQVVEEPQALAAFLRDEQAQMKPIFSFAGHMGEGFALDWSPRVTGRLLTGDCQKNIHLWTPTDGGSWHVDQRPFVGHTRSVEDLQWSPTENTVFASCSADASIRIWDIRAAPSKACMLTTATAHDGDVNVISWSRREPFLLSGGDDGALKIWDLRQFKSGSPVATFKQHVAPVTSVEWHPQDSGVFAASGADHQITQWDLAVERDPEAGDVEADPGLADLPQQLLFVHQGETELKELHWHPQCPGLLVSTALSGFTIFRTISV

Key:
[1] = target: T1, GST-CDC6 (UniProt Q99741); assay: pull-down; GST-Cdt1, GST-CDC6 or GST incubated with bacterially produced GRWD1 or its truncated mutants; collected on glutathione beads; immunoblotting with anti-GRWD1 or anti-GST; both purified
T1 sequence: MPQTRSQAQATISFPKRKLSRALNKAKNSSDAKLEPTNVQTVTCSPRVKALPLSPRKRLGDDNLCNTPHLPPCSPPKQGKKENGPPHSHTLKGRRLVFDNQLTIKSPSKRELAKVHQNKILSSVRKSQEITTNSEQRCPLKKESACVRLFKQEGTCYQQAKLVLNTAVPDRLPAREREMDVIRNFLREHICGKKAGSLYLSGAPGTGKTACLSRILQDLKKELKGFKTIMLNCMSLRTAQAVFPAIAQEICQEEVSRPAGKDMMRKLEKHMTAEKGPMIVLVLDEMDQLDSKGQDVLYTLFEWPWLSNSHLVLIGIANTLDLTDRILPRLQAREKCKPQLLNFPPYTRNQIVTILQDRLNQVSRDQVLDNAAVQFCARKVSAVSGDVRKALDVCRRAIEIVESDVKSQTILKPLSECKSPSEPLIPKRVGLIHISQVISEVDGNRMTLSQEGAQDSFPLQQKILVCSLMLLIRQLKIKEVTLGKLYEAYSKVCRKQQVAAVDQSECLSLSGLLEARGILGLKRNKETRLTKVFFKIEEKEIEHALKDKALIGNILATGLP

[2] = target: T2, GST-Cdt1 (UniProt Q9H211); assay: as above
T2 sequence: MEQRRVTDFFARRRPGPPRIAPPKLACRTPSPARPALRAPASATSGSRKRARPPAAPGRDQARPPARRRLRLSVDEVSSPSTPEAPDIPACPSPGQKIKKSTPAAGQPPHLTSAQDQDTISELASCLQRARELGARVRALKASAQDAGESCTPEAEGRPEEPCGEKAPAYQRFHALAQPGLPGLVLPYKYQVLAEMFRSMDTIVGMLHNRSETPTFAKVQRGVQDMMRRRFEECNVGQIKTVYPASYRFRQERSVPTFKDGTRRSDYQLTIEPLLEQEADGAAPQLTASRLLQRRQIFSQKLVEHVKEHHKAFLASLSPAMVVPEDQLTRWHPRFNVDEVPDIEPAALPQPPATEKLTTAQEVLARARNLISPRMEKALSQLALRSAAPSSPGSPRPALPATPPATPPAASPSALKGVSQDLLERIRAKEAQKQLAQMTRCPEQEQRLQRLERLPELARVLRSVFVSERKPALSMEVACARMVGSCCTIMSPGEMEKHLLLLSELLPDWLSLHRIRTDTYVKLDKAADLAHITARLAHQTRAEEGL

- binding [1]: binds
- binding [2]: binds
Substance: GRWD1 Δacid (bacterially produced, lacking the acidic domain) (from UniProt Q9BQ67)
